PubChem BioAssay AID493014 (National Center for Advancing Translational Sciences (NCATS), 2011)
The list shows a part of the results. Further columns of the screen follow, without active or inactive calls. The list favours compounds with an active or inconclusive main result. Words in brackets tell the shape of the fitted curve; partial curves, single points and poor fits give uncertain potencies.

Assay: qHTS Assay to Find Inhibitors of Chronic Active B-Cell Receptor Signaling
Conditions: ABC-DLBCL IkBa-CBG/CBR reporter, luminescence ratio (green luciferase fused to IkBa over red control in TMD8 lymphoma cells), 4 h
Procedure, shortened: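 TMD8 human ABC-DLBCL cells with doxycycline-inducible IκBα–green luciferase fusion and unfused red luciferase, in 0.5% FBS medium; compounds up to 46 uM, 4 h at 37C. Green/red luminescence ratio, filter-overlap corrected, fitted to concentration-response curves.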

[1] = measured here: CBR red luminescence, cell number
[2] = measured here: IkBa-CBG green luminescence

Row | SMILES | AC50 [1] | AC50 [2]
1 | COc1ccc(-c2nnn(Cc3nc(N)nc(N4CCOCC4)n3)n2)cc1OC | 1.78 µM [falling, partial curve, poor fit] | –
2 | CCCCC(=O)NC(=S)Nc1nnn(CCC)n1 | 22.4 µM [falling, partial curve] | 2.82 µM [falling, full curve]
3 | O=C(COc1ccc(CO)cc1Cl)Nc1ccc(F)cc1 | 20.6 µM [falling, single point] | –
4 | O=C(O)c1ccc(-c2nc3ccccc3s2)o1 | 7.08 µM [falling, partial curve] | 12.6 µM [rising, partial curve, poor fit]
5 | O=C(Nc1ccc(-c2csc(-c3ccccc3)n2)cc1)c1ccccc1Cl | 1.58 µM [falling, full curve, poor fit] | –
6 | Cc1cccc2cc(CN(C(=O)c3cnccn3)C3CCCCC3)c(Cl)nc12 | 29.1 µM [falling, single point] | –
7 | Cn1c(SCC(=O)c2ccc(O)c(O)c2)nnc1-c1cccs1 | 17.8 µM [falling, single point] | –
8 | NC(=O)CN1C(=O)C(O)(CC(=O)/C=C\C=C\c2ccccc2)c2ccccc21 (stereo not drawn) | 10.3 µM [falling, partial curve, poor fit] | –
9 | CCOc1ccccc1C1CC(=O)Nc2cc3c(cc21)OCO3 (stereo not drawn) | 12.6 µM [rising, partial curve] | 22.4 µM [falling, single point]
10 | Cc1nc(-c2ccccc2)sc1C(=O)O | 3.98 µM [falling, full curve] | –
11 | S=C(NCCc1ccccn1)Nc1cccc(Cl)c1 | 1.84 µM [rising, partial curve, poor fit] | –
12 | CCOc1ccc(NC(=S)N(Cc2ccc(N(C)C)cc2)Cc2ccco2)cc1 | 35.5 µM [falling, single point] | –
13 | Cc1noc(C)c1-c1ccc2ncnc(NCc3cccc(-c4ccccc4)c3)c2c1 | 32.6 µM [falling, single point] | –
14 | CSc1nnc(NC(=O)CCc2ccccc2)s1 | 35.5 µM [falling, single point] | –
15 | COc1ccc(C(=O)Nc2cccc3c2CCCC3)cc1OC | 0.891 µM [rising, full curve, poor fit] | –
16 | O=c1oc2ccccc2c(N2CCC(c3ccccc3)CC2)c1[N+](=O)[O-] | 22.4 µM [falling, partial curve, poor fit] | –
17 | c1ccc(-c2nnc(-c3ccccc3)c(-c3c[nH]c4ccccc34)n2)cc1 | 0.112 µM [rising, full curve, poor fit] | –
18 | Cc1cc(N2CCN(C)CC2)nc2ccc(NC(=S)N3CCN(c4cccc(Cl)c4)CC3)cc12 | 3.55 µM [falling, single point] | –
19 | CCOc1ccc(NC(=O)CN(C)CC(=O)Nc2cc(Cl)ccc2C#N)cc1OCC | 32.6 µM [falling, single point] | –
20 | COC(=O)[C@]1(C)N[C@H](CN(C)S(=O)(=O)c2ccc(C(C)(C)C)cc2)[C@@H]2C(=O)N(C)C(=O)[C@@H]21 | 1.3 µM [rising, partial curve, poor fit] | –

Row | SMILES | AC50 [1] | AC50 [2]
21 | CSc1nc(O)c(/C=C2\C=Nc3ccccc32)[nH]1 | 18.4 µM [falling, single point] | –
22 | CCN(CC)c1ccc(C(=O)n2cnc3ccccc32)cc1 | 22.4 µM [falling, single point] | –
23 | Cc1ccc(NC(=O)c2sc(Cl)nc2-c2ccccc2)cc1 | 29.1 µM [falling, single point] | –
24 | Clc1ccccc1-c1nc(-c2ccccc2)n[nH]1 | 8.91 µM [falling, partial curve, poor fit] | –
25 | CC(C)CCOc1ccc(C2CC(=O)N(C)C2=O)cc1 (stereo not drawn) | 0.794 µM [rising, full curve, poor fit] | –
26 | O=C(O)c1ccc(COc2c(F)c(F)c(F)c(F)c2F)o1 | 23.1 µM [rising, single point] | –
27 | CC1(C)CC(=O)C(/C=N/n2c(C(F)(F)F)nc3ccccc3c2=O)=C(O)C1 | 18.4 µM [falling, single point] | –
28 | CCN(C(=O)c1ccc2c(Cl)c3c(nc2c1)CCC3)c1cccc(C)c1 | 7.31 µM [falling, single point] | –
29 | Cc1cccc(C(=O)O/N=C/c2c(N3CCOCC3)n(C)c3ccccc23)c1 | 3.98 µM [falling, partial curve, poor fit] | –
30 | COc1n[nH]c(C(=O)Nc2nc3ccccc3s2)c1[N+](=O)[O-] | 3.16 µM [falling, full curve] | –
31 | COc1ccc(-n2cccc2/C=C2\C(=N)N3N=C(C(C)C)SC3=NC2=O)cc1 | 1.12 µM [rising, full curve, poor fit] | –
32 | CC(Sc1nnnn1-c1ccc(Cl)cc1)C(=O)NCC(=O)Nc1ccc(F)c(F)c1F (stereo not drawn) | – | 32.6 µM [rising, partial curve, poor fit]
33 | Cc1cc(CN2CCN(CCC#N)CC2)c(O)c(C2(C)CCCCC2)c1 | 9.2 µM [falling, partial curve, poor fit] | –
34 | CC(=O)Nc1ccc2nc(NC(=O)COc3ccccc3)sc2c1 | 0.501 µM [falling, full curve, poor fit] | –
35 | Cn1cccc1C(=O)NCCc1ccccc1 | 22.4 µM [falling, single point] | –
36 | CC1(C(=O)OCC(=O)Nc2nc(-c3ccc(F)c(F)c3)cs2)CC1(Cl)Cl (stereo not drawn) | 35.5 µM [falling, single point] | 28.2 µM [rising, partial curve, poor fit]
37 | CCCCCn1c(CCC(=O)Oc2ccccc2OC)nc2c1c(=O)[nH]c(=O)n2CCCC | 1.46 µM [rising, partial curve, poor fit] | –
38 | COC(=O)c1[nH]c2ccc(C)cc2c1NC(=O)Nc1ccc(OC)cc1 | 13 µM [falling, partial curve, poor fit] | –
39 | COc1ccccc1-c1nc(SCC(=O)Nc2ccccc2F)n[nH]1 | 7.08 µM [falling, partial curve] | –

Sorted by length of the SMILES (ascending): three of the compounds above.
Row | SMILES | AC50 [1] | AC50 [2]
26 | O=C(O)c1ccc(COc2c(F)c(F)c(F)c(F)c2F)o1 | 23.1 µM [rising, single point] | –
29 | Cc1cccc(C(=O)O/N=C/c2c(N3CCOCC3)n(C)c3ccccc23)c1 | 3.98 µM [falling, partial curve, poor fit] | –
37 | CCCCCn1c(CCC(=O)Oc2ccccc2OC)nc2c1c(=O)[nH]c(=O)n2CCCC | 1.46 µM [rising, partial curve, poor fit] | –
